Some of these results come from one statement about several compounds together.
Test system: cGMP PDE from human colon HT-29 cultured tumor cells
Experiment: cGMP PDE inhibition assay
Format: biochemical
Details: listed as compound E

In the case of `COc1cc(/C=C2/C(C)=C(CC(=O)NCc3ccccc3)c3cc(F)ccc32)cc(OC)c1OC` [Compound E, (Z)-5-Fluoro-2-methyl-1-(3,4,5-trimethoxybenzylidene)-3-indenylacetamide, N-benzyl], the “cGMP PDE % Inhibition at 10 μM” value is reported as “greater than 50%”.

Source: US6500610B1, “Methods for identifying compounds for inhibiting of neoplastic lesions, and pharmaceutical compositions containing such compounds” (Cell Pathways, INC, priority 1997, dated 2002)
